Screen size: about 340,000 compounds; about 170 (0.05%) were called active. The inconclusive results got no clear call from the source; some entries with a clear call stand among them for comparison. The call rests on the fitted dose curve; in most records, active means well fitted inhibition curve with a large enough effect in the signal ratio, with a control signal flat (not every such curve was filed as active); inconclusive means small, poorly fitted or top-dose-only effect, or effect the other way, or a change in a side signal; inactive means flat fitted curve, though single readings scatter; the % refers to the signal ratio. Potencies of inconclusive entries are doubtful fits and often do not repeat.
Assay: qHTS Assay to Find Inhibitors of Chronic Active B-Cell Receptor Signaling;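 on activity change, negative = inhibition: plate controls were basal doxycycline-induced cells for no effect and cells given 10 µM MG132 for full effect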
Conditions: ABC-DLBCL IkBa-CBG/CBR reporter, luminescence ratio (green luciferase fused to IkBa over red control in TMD8 lymphoma cells), 4 h; activity change, negative = inhibition: at 46.1 µM (top of the series) unless noted
In short: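 Concentration-response series (up to 46 uM) were applied to TMD8 dual-reporter cells for 4 h at 37C with doxycycline. Green/red ratio, after filter-overlap correction, defined %Activity; red signal alone was normalised to basal cells and zero luminescence.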
Potency means the concentration at half of the fitted maximal effect.

Question: With `COc1ccc(-c2nc3ncccc3n2O)cc1` as the molecule, how does the activity change, negative = inhibition read?
Answer: inconclusive: 0.919%

Question: With `COc1ccc(Nc2cc(C(=O)NCCCN3CCN(C)CC3)c3ccccc3n2)cc1OC` as the molecule, how does the activity change, negative = inhibition read?
Answer: inconclusive: 2.02%

Question: With `CCN(CC)S(=O)(=O)c1ccc(C(=O)OCC(=O)c2ccc3c(c2)NC(=O)CO3)cc1` as the molecule, how does the activity change, negative = inhibition read?
Answer: inconclusive: 0.666%

Question: With `Cc1ccc(C(=O)N/N=C\c2cccs2)cn1` as the molecule, how does the activity change, negative = inhibition read?
Answer: inconclusive: -9.49%

Question: With `OC(COc1ccc(OCc2ccccc2)cc1)CN1CCCCC1` (centres undefined) as the molecule, how does the activity change, negative = inhibition read?
Answer: inconclusive: -0.693%

Question: With `COc1ccc(NC(=O)CNC(=O)c2ccco2)cc1S(=O)(=O)Nc1cc(C)ccc1Br` as the molecule, how does the activity change, negative = inhibition read?
Answer: inconclusive: -2.03%

Question: With `CC(Oc1cccc(Cl)c1)c1ccnc2nc(/N=C/N(C)C)nn12` (centres undefined) as the molecule, how does the Potency read?
Answer: inconclusive: 17.8 µM [falling, single point]

Question: With `NC(=O)N/N=C/c1cn(-c2ccccc2)nc1-c1cccs1` as the molecule, how does the activity change, negative = inhibition read?
Answer: inactive

Question: With `COc1cc(SC)ccc1C(=O)Nc1nc(C)cs1` as the molecule, how does the Potency read?
Answer: inconclusive: 15.8 µM [falling, partial curve]

Question: Which activity change, negative = inhibition does the source give for `CCOc1cc(C(=S)N2CCOCC2)ccc1OS(=O)(=O)c1ccc(OC)cc1` here?
Answer: inactive

Question: For `C=C(C)CN1CCN(S(=O)(=O)c2ccc(C)c(N(C)S(=O)(=O)c3ccc(C)cc3)c2C)CC1`, which activity change, negative = inhibition is on record?
Answer: inactive

Question: With `CC1CC(=O)Nc2ccccc2N1S(=O)(=O)c1ccc(F)cc1F` (centres undefined) as the molecule, how does the activity change, negative = inhibition read?
Answer: inconclusive: 0.213%

Question: With `Cc1ccc(C(=O)N2CCCC(Nc3ccc(F)cc3)C2)cc1C` (centres undefined) as the molecule, how does the activity change, negative = inhibition read?
Answer: inconclusive: -3.27%

Question: Which activity change, negative = inhibition does the source give for `O=C(NCc1ccccc1Cl)c1ccc2c(c1)N(Cc1ccccc1)C(=O)c1ccccc1S2` here?
Answer: inactive

Question: For `Cc1ccc(Cn2cc(CCC(=O)O)c3ccccc32)cc1`, which activity change, negative = inhibition is on record?
Answer: inconclusive: 5.08%

Question: For `Fc1ccc(-c2nc(-c3cccs3)no2)cc1`, which activity change, negative = inhibition is on record?
Answer: inconclusive: 2.63%

Question: For `CCOc1cccc(-c2cc(C(=O)Nc3ccon3)c3ccccc3n2)c1`, which activity change, negative = inhibition is on record?
Answer: inconclusive: 13.4%

Question: Which activity change, negative = inhibition does the source give for `COc1ccc(NC(=O)c2c(NCc3cccs3)sc3c2CCCCC3)cc1` here?
Answer: inconclusive: -14.3%

Question: Which activity change, negative = inhibition does the source give for `CN(C1CCCCC1)S(=O)(=O)c1ccc(F)c(C(=O)Nc2ccc(C(F)(F)F)cc2)c1` here?
Answer: inconclusive: 28.3%

Question: Which activity change, negative = inhibition does the source give for `O=C(Nc1cccc(-c2nn[nH]n2)c1)c1ccc(Br)s1` here?
Answer: inconclusive: 0.656%

Question: Which Potency does the source give for `COc1cccc(C2=NOC(C(=O)NCc3ccco3)C2)c1` (centres undefined) here?
Answer: inconclusive: 28.2 µM [falling, partial curve]

Question: With `Cc1ccc(-n2ncc3c2CC(C)(C)CC3NC(=O)Cc2c(C)noc2C)cc1` (centres undefined) as the molecule, how does the activity change, negative = inhibition read?
Answer: inactive

Question: With `C=CCc1cc(C(=O)N2CCCCC2)ccc1O` as the molecule, how does the activity change, negative = inhibition read?
Answer: inconclusive: 4.77%

Question: With `CCCc1ccc(-c2c(C)sc(N)c2C#N)cc1` as the molecule, how does the activity change, negative = inhibition read?
Answer: inconclusive: 6.56%

Question: Which activity change, negative = inhibition does the source give for `N=c1sc2ccccc2n1-c1ccccc1` here?
Answer: inconclusive: -1.87%

Question: For `C/C(=N\NC(=S)NCc1ccccc1)C1CCCCC1`, which Potency is on record?
Answer: inconclusive: 17.8 µM [falling, partial curve, poor fit]

Question: With `CC(C)C(=O)NC1CC(=O)N(c2ccc3c(c2)OCCO3)C1` (centres undefined) as the molecule, how does the activity change, negative = inhibition read?
Answer: inactive

Question: With `CCOC(=O)CC(=O)c1cc(OC)c(OC)c(OC)c1` as the molecule, how does the activity change, negative = inhibition read?
Answer: inconclusive: 2.87%

Question: For `Cn1cc(CC(=O)NC2CCCCC2)c2ccccc21`, which Potency is on record?
Answer: inconclusive: 31.6 µM [rising, single point]

Question: Which activity change, negative = inhibition does the source give for `CNC(=O)CSc1nc2c([nH]c3ccccc32)c(=O)n1CCOC` here?
Answer: inconclusive: -8.1%

Question: For `Oc1ccc(Nc2nc(-c3ccc(O)cc3)cs2)cc1`, which Potency is on record?
Answer: inconclusive: 25.9 µM [falling, single point]

Question: Which Potency does the source give for `C=CCOc1ccccc1C1C2=C(CC(C)(C)CC2=O)Nc2c1c(=O)n(C)c(=O)n2C` (centres undefined) here?
Answer: inconclusive: 35.5 µM [rising, partial curve, poor fit]

Question: With `COc1ccc(/C=N/NC(=O)c2ccn[nH]2)cc1COc1ccc(Cl)cc1` as the molecule, how does the Potency read?
Answer: inconclusive: 8.91 µM [falling, partial curve, poor fit]

Question: For `Cc1oc(-c2ccc(Cl)cc2)nc1CN1CCC(C(=O)N2CCN(Cc3ccccc3)CC2)CC1`, which activity change, negative = inhibition is on record?
Answer: inconclusive: 24.1%

Question: With `O=c1c(-c2nc3ccccc3s2)cccn1Cc1ccccc1` as the molecule, how does the activity change, negative = inhibition read?
Answer: inconclusive: 9.51%

Question: For `Cc1ccc2nc(NC(=O)[C@H](C)N3C(=O)C4CC=CCC4C3=O)sc2c1` (some centres undefined), which activity change, negative = inhibition is on record?
Answer: inconclusive: -13.7%

Question: For `Cc1c(F)cccc1NS(=O)(=O)c1cccs1`, which activity change, negative = inhibition is on record?
Answer: inactive

Question: For `O=C(Nn1cnnc1)c1ccc(Cl)c([N+](=O)[O-])c1`, which activity change, negative = inhibition is on record?
Answer: inconclusive: 1.48%

Question: For `CCN(CC)S(=O)(=O)c1ccc(/C(O)=C(\C#N)c2nc3ccccc3n2C)cc1`, which activity change, negative = inhibition is on record?
Answer: inconclusive: 0.59%

Question: With `CCCn1nc(C(=O)NCC(C)(C)N2CCOCC2)c2ccccc2c1=O` as the molecule, how does the activity change, negative = inhibition read?
Answer: inactive

Question: With `Cc1ccc(-n2cc3c(-c4cccc(Br)c4)nnc(C)c3n2)cc1` as the molecule, how does the activity change, negative = inhibition read?
Answer: inactive

Question: Which activity change, negative = inhibition does the source give for `Cc1nn(-c2ccccc2)c2c1C(O)n1c(nc3ccccc31)S2` (centres undefined) here?
Answer: inconclusive: -22.7%

Question: For `O=C(CCS(=O)(=O)Cc1ccc(Cl)cc1)NCCCN1CCOCC1`, which activity change, negative = inhibition is on record?
Answer: inconclusive: -0.694%

Question: With `S=C(Nc1ccccc1)N1CCC(Cc2ccccc2)CC1` as the molecule, how does the activity change, negative = inhibition read?
Answer: inactive

Question: Which activity change, negative = inhibition does the source give for `CCOC(=O)c1sc2nc(CSCC(=O)OCc3ccc(C(=O)OC)o3)[nH]c(=O)c2c1C` here?
Answer: inconclusive: -7.54%

Question: For `COc1cccc(NC(=O)Cn2cnc3sc(C)c(S(=O)(=O)N4CCN(C)CC4)c3c2=O)c1`, which Potency is on record?
Answer: inconclusive: 25.9 µM [falling, partial curve, poor fit]

Question: For `O=C1c2ccccc2C(=O)N1CCc1nc(-c2ccncc2)no1`, which activity change, negative = inhibition is on record?
Answer: inconclusive: -3.9%

Question: With `CC(O)CNc1nc2c(c(=O)n(Cc3ccc(Cl)c(Cl)c3)c(=O)n2C)n1C` (centres undefined) as the molecule, how does the activity change, negative = inhibition read?
Answer: inconclusive: -4.63%

Question: For `CCCNC(=S)NCCN1CCCCC1`, which activity change, negative = inhibition is on record?
Answer: inconclusive: 12.5%

Question: Which activity change, negative = inhibition does the source give for `O=C1CCCC(O)=C1C(C#Cc1ccccc1)C1=C(O)CCCC1=O` here?
Answer: inconclusive: -7.89%

Question: With `Cc1cccc(NC(=O)CSc2nnc(NC(=O)CN3CCOCC3)s2)c1` as the molecule, how does the activity change, negative = inhibition read?
Answer: inconclusive: 11.1%

Question: With `CC(C)CC1Nc2ncnc(N3CCN(c4ccccn4)CC3)c2N(Cc2ccc(Br)cc2)C1=O` (centres undefined) as the molecule, how does the activity change, negative = inhibition read?
Answer: inactive

Question: Which activity change, negative = inhibition does the source give for `CC(=O)Nc1ccc2c(CSc3nncs3)cc(=O)oc2c1` here?
Answer: inconclusive: 0.579%

Question: With `CCc1c(O)nc(SCC(=O)Nc2ccc(OC)cc2)n(C2CCCCC2)c1=O` as the molecule, how does the activity change, negative = inhibition read?
Answer: inconclusive: -0.972%

Reference: PubChem BioAssay AID493014 (National Center for Advancing Translational Sciences (NCATS), 2011)
